Source: PubChem BioAssay AID1259308 (NCATS, 2017)
Assay: 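Candidate targets for better recombinant protein yield in mammalian cells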 (primary screen). System: human HEK293 embryonic kidney cells stably expressing firefly luciferase (HEK-CMV-Luc2-Hygro). Reagent: single siRNA against human genes, 0.8 pmol siRNA per well. Duration: 72 h. Measurement: 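Luciferase light (ONE-Glo) measured on one replicate plate set and viability (CellTiter-Glo) on the other, scaled to a negative control siRNA, with robust z-scores and luciferase per cell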. Reading the numbers: total luciferase, z-score: higher = more reporter protein produced. Active means: 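An siRNA counts as active if its total luciferase robust z-score exceeds 3; genes with two or more such siRNAs out of three were retested with fresh siRNAs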. Meaning of the calls: active = raised luciferase; inactive = no rise.
The whole screen tested about 59,000 reagents; shown is a random part of them. Of all reagents, about 1,510 (2.6%) were called active. 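Calls use total luciferase alone and ignore viability, so some active siRNAs may act by altering cell number.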 Entries without a mark were called inactive. The numbers tell different reagents against one gene apart. Not all columns of the deposit are shown. Reagent sequences are not shown.

total luciferase, z-score, by gene and reagent
SHKBP1 (SH3KBP1 binding protein 1): #1 -0.202; #2 0.466; #3 -1.1
ADRB1 (adrenoceptor beta 1): #1 -0.0977; #2 0.0805; #3 1.71
VMAC: #1 -1.46; #2 0.737; #3 0.744
C1QTNF4 (C1q and TNF related 4): #1 -1.83; #2 -0.142; #3 4.51 (active)
KRT76 (keratin 76): #1 -1.87; #2 0.269; #3 0.29
HOXB5 (homeobox B5): #1 0.0879; #2 0.355; #3 0.903
ZNF519P3 (zinc finger protein 519 pseudogene 3): #1 0.183; #2 0.00319; #3 -0.161

Reagents above with an active call (1):
total luciferase, z-score, by gene and reagent
C1QTNF4 (C1q and TNF related 4): #3 4.51 (active)

The list goes on:
total luciferase, z-score, by gene and reagent
TRIM46 (tripartite motif containing 46): #1 0.243; #2 2.35; #3 0.353
TEAD4 (TEA domain transcription factor 4): #1 0.258; #2 -1.6; #3 -2.05
EHHADH (enoyl-CoA hydratase and 3-hydroxyacyl CoA dehydrogenase): #1 -0.546; #2 -0.00168; #3 -1.35
SACK1C (scaffolding CK1 anchoring protein C): #1 -0.83; #2 0.0441; #3 0.083
G3BP2 (G3BP stress granule assembly factor 2): #1 -0.167; #2 -0.0432; #3 0.703
KIAA1549: #1 0.93; #2 1.62; #3 0.438
